Laboratory results taken from publication PMC6367212.
No constants are given. Whether binding was seen depends on the method and setting. In cells and extracts the contact can be indirect. Some binding calls cover weakened binding; strength is not graded here. Values belong to the substance of their own block, whether it stands above or below them.

Sequences of proteins named here, by UniProt entry; tags and fusion partners are left off. A change or cut given only in a name is not applied to a line headed by its entry.
UniProt P61073: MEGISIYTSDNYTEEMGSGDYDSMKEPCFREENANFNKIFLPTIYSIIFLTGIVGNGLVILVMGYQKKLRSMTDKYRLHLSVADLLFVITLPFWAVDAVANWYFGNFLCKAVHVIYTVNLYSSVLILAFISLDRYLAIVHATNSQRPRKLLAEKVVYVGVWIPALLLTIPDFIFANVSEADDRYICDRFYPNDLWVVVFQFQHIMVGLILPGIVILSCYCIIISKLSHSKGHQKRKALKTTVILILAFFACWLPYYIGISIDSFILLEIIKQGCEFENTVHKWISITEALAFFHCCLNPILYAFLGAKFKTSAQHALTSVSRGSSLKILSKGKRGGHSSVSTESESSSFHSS
UniProt Q16665: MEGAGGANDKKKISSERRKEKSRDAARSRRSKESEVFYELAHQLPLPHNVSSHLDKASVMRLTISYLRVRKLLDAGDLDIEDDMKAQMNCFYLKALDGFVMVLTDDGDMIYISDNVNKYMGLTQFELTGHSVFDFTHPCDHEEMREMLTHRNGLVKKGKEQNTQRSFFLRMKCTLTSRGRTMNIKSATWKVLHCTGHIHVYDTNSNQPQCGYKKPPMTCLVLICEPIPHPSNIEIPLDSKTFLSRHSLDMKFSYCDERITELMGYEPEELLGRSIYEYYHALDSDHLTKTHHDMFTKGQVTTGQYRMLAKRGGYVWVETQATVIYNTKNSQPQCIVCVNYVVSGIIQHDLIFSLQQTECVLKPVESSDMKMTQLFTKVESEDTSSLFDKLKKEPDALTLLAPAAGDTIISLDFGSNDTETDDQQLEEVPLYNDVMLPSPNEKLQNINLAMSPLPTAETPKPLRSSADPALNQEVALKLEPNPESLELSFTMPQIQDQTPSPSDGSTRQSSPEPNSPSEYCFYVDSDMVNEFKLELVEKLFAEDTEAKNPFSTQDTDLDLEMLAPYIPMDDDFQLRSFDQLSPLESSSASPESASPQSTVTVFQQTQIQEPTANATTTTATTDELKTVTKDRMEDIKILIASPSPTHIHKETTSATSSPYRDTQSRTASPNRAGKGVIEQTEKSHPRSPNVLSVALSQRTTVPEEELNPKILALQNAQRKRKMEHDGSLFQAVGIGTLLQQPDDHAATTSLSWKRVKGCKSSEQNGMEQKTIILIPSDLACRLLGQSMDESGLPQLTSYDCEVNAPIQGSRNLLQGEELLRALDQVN

Key:
[1] = biological target: CXCR4 (endogenous, ACHN cells) (human (endogenous in ACHN)) (UniProt P61073); assay: proximity ligation; Duolink assay on fixed ACHN cells, serum-starved 12 h, without or with CXCL12 (200 ng/ml, 24 h); rabbit anti-CXCR4 and mouse anti-HIF-1α antibodies with PLA probes; signal when the distance is less than 40 nm
[2] = biological target: CXCR4-mNLS-EGFP (CXCR4 with the nuclear localization sequence 146-RPRK-149 mutated to AAAA, tagged with EGFP at the C-terminus) (human) (UniProt P61073); assay: co-IP; GFP-Trap A beads (ChromoTek) on lysate of ACHN cells overexpressing FLAG-tagged HIF-1α and CXCR4-EGFP, CXCR4-mNLS-EGFP or EGFP; precipitates analysed by western blot
[3] = biological target: CXCR4-EGFP (CXC chemokine receptor 4 tagged with enhanced green fluorescent protein at the C-terminus) (human) (UniProt P61073); assay: as above
[4] = biological target: FLAG-tagged HIF-1α (hypoxia-inducible factor-1α) (UniProt Q16665); assay: co-IP; Flag antibody covalently coupled to amine-reactive resin (Pierce Co-IP kit) on lysate of ACHN cells overexpressing FLAG-tagged HIF-1α and CXCR4-EGFP, CXCR4-mNLS-EGFP or EGFP; western blot

binding [1]: binds
Substance: HIF-1α (endogenous, ACHN cells) (from UniProt Q16665 1-826)

binding [2]: binds | binding [3]: binds
Substance: FLAG-tagged HIF-1α (hypoxia-inducible factor-1α) (from UniProt Q16665 1-826)

binding [4]: binds
Substance: CXCR4-mNLS-EGFP (CXCR4 with the nuclear localization sequence 146-RPRK-149 mutated to AAAA, tagged with EGFP at the C-terminus) (from UniProt P61073-1 1-352) (receptor)

binding [4]: binds
Substance: CXCR4-EGFP (CXC chemokine receptor 4 tagged with enhanced green fluorescent protein at the C-terminus) (from UniProt P61073-1 1-352)
